## Percent effect of library compounds

Chains of the proteins cited; added tags and fusions are not shown. Residues count along the entry.
UniProt P9WPC5, whole entry: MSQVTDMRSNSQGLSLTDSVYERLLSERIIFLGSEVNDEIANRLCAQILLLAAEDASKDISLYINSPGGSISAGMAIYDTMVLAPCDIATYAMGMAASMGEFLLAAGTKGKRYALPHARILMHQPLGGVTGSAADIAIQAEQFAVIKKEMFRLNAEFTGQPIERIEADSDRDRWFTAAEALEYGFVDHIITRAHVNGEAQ
UniProt P9WPC3, whole entry partner: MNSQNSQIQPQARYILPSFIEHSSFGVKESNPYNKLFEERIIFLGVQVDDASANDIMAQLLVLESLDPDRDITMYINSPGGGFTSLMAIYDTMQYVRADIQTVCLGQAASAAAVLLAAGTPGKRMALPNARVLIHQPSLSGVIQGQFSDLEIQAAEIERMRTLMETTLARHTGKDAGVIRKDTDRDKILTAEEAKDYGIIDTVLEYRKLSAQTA
UniProt P9WNZ1, whole entry: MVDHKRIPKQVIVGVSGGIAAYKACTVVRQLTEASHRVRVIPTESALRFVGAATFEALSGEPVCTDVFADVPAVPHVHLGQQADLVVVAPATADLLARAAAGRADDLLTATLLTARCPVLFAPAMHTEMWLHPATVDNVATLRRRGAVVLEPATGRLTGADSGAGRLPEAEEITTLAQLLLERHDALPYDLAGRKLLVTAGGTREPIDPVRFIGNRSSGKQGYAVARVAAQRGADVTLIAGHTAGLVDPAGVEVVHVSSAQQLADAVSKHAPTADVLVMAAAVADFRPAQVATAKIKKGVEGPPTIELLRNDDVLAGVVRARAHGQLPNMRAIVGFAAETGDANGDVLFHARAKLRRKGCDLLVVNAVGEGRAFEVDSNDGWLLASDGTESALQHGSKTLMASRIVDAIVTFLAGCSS
UniProt Q8IDJ8, 1-583: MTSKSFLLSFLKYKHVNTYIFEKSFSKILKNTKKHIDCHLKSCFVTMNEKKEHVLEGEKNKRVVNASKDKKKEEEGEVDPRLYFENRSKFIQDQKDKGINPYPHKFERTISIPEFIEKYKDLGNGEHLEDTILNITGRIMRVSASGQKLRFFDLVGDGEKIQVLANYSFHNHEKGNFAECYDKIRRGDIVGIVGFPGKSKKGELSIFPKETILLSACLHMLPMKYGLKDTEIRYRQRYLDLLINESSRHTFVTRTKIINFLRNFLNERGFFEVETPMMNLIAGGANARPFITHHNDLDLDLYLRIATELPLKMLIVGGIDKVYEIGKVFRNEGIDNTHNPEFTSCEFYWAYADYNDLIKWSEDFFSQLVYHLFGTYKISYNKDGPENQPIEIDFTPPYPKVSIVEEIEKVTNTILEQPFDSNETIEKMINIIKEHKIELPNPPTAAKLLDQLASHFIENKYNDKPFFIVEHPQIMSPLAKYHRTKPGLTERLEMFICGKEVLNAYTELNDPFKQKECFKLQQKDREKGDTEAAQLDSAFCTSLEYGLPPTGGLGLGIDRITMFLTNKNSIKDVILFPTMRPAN
UniProt Q4DA54, 1-478: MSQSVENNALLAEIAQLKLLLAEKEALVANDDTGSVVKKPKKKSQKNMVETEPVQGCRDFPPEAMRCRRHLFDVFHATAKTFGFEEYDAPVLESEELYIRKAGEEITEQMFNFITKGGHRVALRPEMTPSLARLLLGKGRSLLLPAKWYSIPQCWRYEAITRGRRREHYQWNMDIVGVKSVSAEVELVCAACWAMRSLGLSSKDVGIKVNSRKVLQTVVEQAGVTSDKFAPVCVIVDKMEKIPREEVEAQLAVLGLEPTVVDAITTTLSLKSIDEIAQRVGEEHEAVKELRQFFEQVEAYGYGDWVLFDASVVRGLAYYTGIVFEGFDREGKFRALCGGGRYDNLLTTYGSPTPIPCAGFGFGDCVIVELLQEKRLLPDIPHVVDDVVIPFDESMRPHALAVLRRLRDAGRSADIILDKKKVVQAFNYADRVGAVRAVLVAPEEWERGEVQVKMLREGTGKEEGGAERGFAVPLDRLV
UniProt I6X8D2, whole entry: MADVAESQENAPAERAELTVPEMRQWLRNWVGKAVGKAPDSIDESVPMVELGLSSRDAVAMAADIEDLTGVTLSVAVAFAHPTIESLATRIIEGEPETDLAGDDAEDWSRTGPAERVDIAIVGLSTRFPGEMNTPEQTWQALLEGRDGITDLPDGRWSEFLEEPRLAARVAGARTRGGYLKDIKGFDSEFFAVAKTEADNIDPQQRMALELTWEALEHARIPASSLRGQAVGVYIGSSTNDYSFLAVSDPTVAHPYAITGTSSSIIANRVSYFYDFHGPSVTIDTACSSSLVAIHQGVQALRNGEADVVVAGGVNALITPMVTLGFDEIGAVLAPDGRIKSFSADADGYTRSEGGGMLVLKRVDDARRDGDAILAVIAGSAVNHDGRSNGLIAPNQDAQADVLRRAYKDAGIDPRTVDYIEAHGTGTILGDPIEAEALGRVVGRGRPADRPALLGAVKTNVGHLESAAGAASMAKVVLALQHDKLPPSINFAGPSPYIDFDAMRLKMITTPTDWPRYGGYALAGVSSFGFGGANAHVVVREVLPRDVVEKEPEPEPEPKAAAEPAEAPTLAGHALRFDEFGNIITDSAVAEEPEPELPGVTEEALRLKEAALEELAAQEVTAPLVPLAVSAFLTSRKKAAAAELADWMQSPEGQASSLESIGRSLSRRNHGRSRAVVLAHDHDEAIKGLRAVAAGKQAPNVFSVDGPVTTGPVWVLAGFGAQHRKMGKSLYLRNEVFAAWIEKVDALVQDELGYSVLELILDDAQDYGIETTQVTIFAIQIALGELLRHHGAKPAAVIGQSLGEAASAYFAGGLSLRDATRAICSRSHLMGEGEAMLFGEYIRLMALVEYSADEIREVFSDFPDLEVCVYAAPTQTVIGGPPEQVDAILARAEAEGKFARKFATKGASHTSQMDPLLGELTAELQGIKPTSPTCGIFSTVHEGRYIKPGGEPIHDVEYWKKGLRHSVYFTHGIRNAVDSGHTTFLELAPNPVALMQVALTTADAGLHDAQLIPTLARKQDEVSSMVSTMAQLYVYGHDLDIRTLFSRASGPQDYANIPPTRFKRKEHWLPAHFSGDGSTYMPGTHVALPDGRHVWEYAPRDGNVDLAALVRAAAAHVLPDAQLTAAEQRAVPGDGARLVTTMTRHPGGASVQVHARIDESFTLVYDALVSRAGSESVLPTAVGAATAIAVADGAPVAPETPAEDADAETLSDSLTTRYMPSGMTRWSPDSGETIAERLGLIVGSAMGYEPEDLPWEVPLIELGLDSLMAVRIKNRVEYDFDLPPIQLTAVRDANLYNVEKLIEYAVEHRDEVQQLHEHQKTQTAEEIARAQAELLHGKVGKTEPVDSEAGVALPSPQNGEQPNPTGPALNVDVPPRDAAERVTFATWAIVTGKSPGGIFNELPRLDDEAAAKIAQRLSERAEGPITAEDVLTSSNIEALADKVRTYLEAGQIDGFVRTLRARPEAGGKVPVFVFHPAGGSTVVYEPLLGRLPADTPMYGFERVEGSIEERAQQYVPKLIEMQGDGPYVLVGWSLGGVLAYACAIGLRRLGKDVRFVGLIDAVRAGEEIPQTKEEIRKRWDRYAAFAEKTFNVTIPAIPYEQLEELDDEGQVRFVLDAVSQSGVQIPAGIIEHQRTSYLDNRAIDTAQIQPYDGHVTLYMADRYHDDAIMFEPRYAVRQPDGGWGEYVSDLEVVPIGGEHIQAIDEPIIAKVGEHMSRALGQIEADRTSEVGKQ

The values are deposited in ChEMBL (CHEMBL3988442, “University of Dundee, Small-Polar-MMV Screening Library” (2021)).

ClpP1P2: 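Protease assay of ClpP1P2, read by the AMC dye that it sets free. Target: ClpP1P2, Mycobacterium tuberculosis (UniProt P9WPC5 and UniProt P9WPC3). Concentration: 50 µM. Direction is inferred from only a few compounds that gave an IC50; most scored high, so higher reads as stronger inhibition. Most other retested compounds had strongly negative values. About 69,000 compounds were tested under these conditions; 0.015% (about 10) showed 50% or more at least once.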
CoaBC: 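Enzyme assay of CoaBC with a phosphate dye (Biomol Green) read at 650 nm. Target: Coenzyme A biosynthesis protein CoaBC, Mycobacterium tuberculosis (UniProt P9WNZ1). Compounds at 30 µM. Direction is inferred from only a few compounds that gave an IC50; most scored high, so higher reads as stronger inhibition. Most strong results did not repeat in a second test. Size under these conditions: about 67,000 compounds, about 40 of them at 50% or above in at least one test.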
PfKRS1: 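Enzyme assay of the cytosolic lysyl-tRNA synthetase in 384-well plates, read by luminescence. Target: Lysine-tRNA ligase, Plasmodium falciparum 3D7 (UniProt Q8IDJ8). Tested at 30 µM. Direction is inferred from only a few compounds that gave an IC50; most scored high, so higher reads as stronger inhibition. Of about 69,000 compounds tested this way, about 49 (0.071%) reached 50% or more in at least one test.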
TcHisRS: 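Enzyme assay of histidyl-tRNA synthetase; the read-out is not stated. Target: Histidine-tRNA ligase, Trypanosoma cruzi CL Brener (UniProt Q4DA54). Concentration: 30 µM. Higher reads as stronger inhibition (inferred: compounds with an IC50 in retests scored well above the rest). Size under these conditions: about 69,000 compounds, about 31 of them at 50% or above in at least one test.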
Pks13 thioesterase: 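Polyketide synthase Pks13, Mycobacterium tuberculosis (UniProt I6X8D2). Enzyme assay of the thioesterase domain of polyketide synthase 13; the read-out is not stated. Tested at 30 µM. The record gives no direction; the compounds picked for IC50 retests had high values, so higher reads as stronger inhibition. Of about 67,000 compounds tested this way, about 300 (0.46%) reached 50% or more in at least one test.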

Results are given as percent effect. The controls that fix the scale are not given in the record; negative values are as filed. This is an unselected part of the compounds tested.

* CC(CNC(=O)NCc1ccsc1)CC1(C)OCCO1 (centres unmarked) : ClpP1P2: 3.172%; PfKRS1: 0%; TcHisRS: -3.185%; Pks13 thioesterase: -38.87%
* CCN(CC)c1nc2sc(C(=O)NC(C)(C)C(=O)OC)cc2s1 : ClpP1P2: -39.87%; CoaBC: 0.6242%; PfKRS1: 1.735%; TcHisRS: 6.122%; Pks13 thioesterase: 39.59%
* O=C(N[C@@H]1CN(Cc2cccc(F)c2)C[C@H]1O)c1cscn1 : ClpP1P2: -16.53%; CoaBC: 1.699%; PfKRS1: 1.09%; TcHisRS: 1.099%; Pks13 thioesterase: 9.721%
* Cc1nc2ncc3c(=O)n(C)ccc3n2n1 : ClpP1P2: -19.6%; CoaBC: 0.7264%; PfKRS1: 3.539%; TcHisRS: 15%; Pks13 thioesterase: 18.8%
* CN(C)C(=O)c1cccc(CN2CCOC(Cn3cncn3)C2)c1 (centres unmarked) : ClpP1P2: 6.021%; CoaBC: 1.935%; PfKRS1: 0.5187%; TcHisRS: 4.023%; Pks13 thioesterase: -16.82%
* CC(C)Nc1ncccc1C(=O)NC1CC(=O)N(CC(F)(F)F)C1 (centres unmarked) : ClpP1P2: -15.11%; CoaBC: 6.061%; PfKRS1: -0.3159%; TcHisRS: 2.941%; Pks13 thioesterase: -9.775%
* Cc1ccnc2c1NC(=O)CN2C(=O)CCc1ccccc1 : ClpP1P2: -4.851%; CoaBC: 4.3%; PfKRS1: 1.242%; TcHisRS: 14.29%
* O=C(c1cn(CC(=O)N2CCCCCC2)c2ccccc12)C1CC1 : ClpP1P2: -2.644%; CoaBC: 11.45%; PfKRS1: 2.112%; TcHisRS: 8.163%; Pks13 thioesterase: -26.5%
* Cc1cc(CN2CCN(C(=O)C(C(C)C)n3cncn3)CC2)on1 (centres unmarked) : ClpP1P2: -13.04%; CoaBC: 4.315%; PfKRS1: 3.327%; TcHisRS: 0.4484%; Pks13 thioesterase: -4.622%
* CCNC(=O)N(C)CCCc1n[nH]c(N)c1C#N : ClpP1P2: -1.514%; CoaBC: 0.3628%; PfKRS1: 0.6494%; TcHisRS: 3.247%; Pks13 thioesterase: 7.566%
* O=C(NC1CCN(c2ncccn2)CC1)c1sccc1C1CC1 : ClpP1P2: -7.02%; CoaBC: -0.7782%; PfKRS1: 5.543%; TcHisRS: 10%; Pks13 thioesterase: -0.3299%
* CCO[C@@H]1CO[C@@]2(CCN(Cc3ccc4c(c3)OCO4)C2)C1 : ClpP1P2: 8.161%; CoaBC: 6.564%; PfKRS1: 3.656%; TcHisRS: 1.942%; Pks13 thioesterase: -19.25%
* CN1CCC(c2cccc(Cc3ccc(F)cc3)n2)CC1 : ClpP1P2: -0.7663%; CoaBC: 1.111%; PfKRS1: 0.7578%; TcHisRS: -1.622%; Pks13 thioesterase: -58.43%
* O=C(CCc1ccccc1)C1CCCN(C(=O)c2cncc(Cl)c2)C1 (centres unmarked) : ClpP1P2: 3.473%; CoaBC: 4.43%; PfKRS1: 10.18%; TcHisRS: 4.878%; Pks13 thioesterase: 11.03%
* Cn1ccc(CN2CCC(CN3CCOCC3)CC2)cc1=O : ClpP1P2: 0.926%; CoaBC: -7.775%; PfKRS1: -0.7369%; TcHisRS: 4.274%; Pks13 thioesterase: -22.18%

For reference, 2 entries once more:

For Cc1nc2ncc3c(=O)n(C)ccc3n2n1 the result was ClpP1P2: -19.6%; CoaBC: 0.7264%; PfKRS1: 3.539%; TcHisRS: 15%; Pks13 thioesterase: 18.8%.
For CN(C)C(=O)c1cccc(CN2CCOC(Cn3cncn3)C2)c1 (centres unmarked) the result was ClpP1P2: 6.021%; CoaBC: 1.935%; PfKRS1: 0.5187%; TcHisRS: 4.023%; Pks13 thioesterase: -16.82%.